# Values of other authors as cited in US20020045179A1, “Toxicity typing using mesenchymal stem cells” (priority 2000, published 2002).
# Conditions: Table 1, predetermined toxicity by tissue/organ
smiles,measurement,value
O=C(O)c1cn(C2CC2)c2cc(N3CCNCC3)c(F)cc2c1=O [ciprofloxacin],TOXICITIES LIVER,ntc
